Data: PMC4667271, “Discovery of a Novel Inhibitor of the Protein Tyrosine Phosphatase Shp2” (Scientific Reports, 2015)
Results are given in words; binding and its absence hold for the method and conditions named. In cells and extracts the contact can be indirect. Some results given as binding are weak or reduced against the parent protein; the word gives no strength.

Biological target: T1, Gab1 (human (endogenous in HEK293T and MDA-MB-231)) (UniProt Q13480)
T1 sequence (chain, tyrosine-phosphorylated (pY-Gab1) in EGF-stimulated cells; sites not stated): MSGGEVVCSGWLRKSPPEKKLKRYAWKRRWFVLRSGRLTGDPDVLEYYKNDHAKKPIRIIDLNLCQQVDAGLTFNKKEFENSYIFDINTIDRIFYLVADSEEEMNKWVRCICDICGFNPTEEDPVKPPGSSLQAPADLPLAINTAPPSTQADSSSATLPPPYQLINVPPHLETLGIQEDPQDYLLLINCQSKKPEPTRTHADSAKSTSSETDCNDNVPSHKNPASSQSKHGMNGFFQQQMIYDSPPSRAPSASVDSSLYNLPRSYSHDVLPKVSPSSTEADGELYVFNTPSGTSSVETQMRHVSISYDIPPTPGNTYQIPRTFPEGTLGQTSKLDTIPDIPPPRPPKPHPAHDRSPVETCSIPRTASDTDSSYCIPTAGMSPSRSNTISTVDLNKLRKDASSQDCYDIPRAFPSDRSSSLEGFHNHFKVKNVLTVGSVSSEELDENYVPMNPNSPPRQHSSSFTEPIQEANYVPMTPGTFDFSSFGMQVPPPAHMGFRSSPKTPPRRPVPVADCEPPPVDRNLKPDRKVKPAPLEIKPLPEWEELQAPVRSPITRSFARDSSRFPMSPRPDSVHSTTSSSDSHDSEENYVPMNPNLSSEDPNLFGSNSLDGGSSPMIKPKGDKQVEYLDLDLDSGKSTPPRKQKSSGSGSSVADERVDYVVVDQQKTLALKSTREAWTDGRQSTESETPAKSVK
Assay: co-IP; HEK293T cells serum-starved 18 h, with or without Fumos (20 uM, 24 h), then EGF (20 ng/ml, 5 min), or Fumos alone; lysate supernatant immunoprecipitated with antibody against Shp2 or Gab1 and Protein A/G PLUS-Agarose at 4 C; immunoblot for Gab1, RasGAP, pY and Shp2

- binding: binds
B1: RasGAP (protein, UniProt P20936 1-1047)
chain: MMAAEAGSEEGGPVTAGAGGGGAAAGSSAYPAVCRVKIPAALPVAAAPYPGLVETGVAGTLGGGAALGSEFLGAGSVAGALGGAGLTGGGTAAGVAGAAAGVAGAAVAGPSGDMALTKLPTSLLAETLGPGGGFPPLPPPPYLPPLGAGLGTVDEGDSLDGPEYEEEEVAIPLTAPPTNQWYHGKLDRTIAEERLRQAGKSGSYLIRESDRRPGSFVLSFLSQMNVVNHFRIIAMCGDYYIGGRRFSSLSDLIGYYSHVSCLLKGEKLLYPVAPPEPVEDRRRVRAILPYTKVPDTDEISFLKGDMFIVHNELEDGWMWVTNLRTDEQGLIVEDLVEEVGREEDPHEGKIWFHGKISKQEAYNLLMTVGQVCSFLVRPSDNTPGDYSLYFRTNENIQRFKICPTPNNQFMMGGRYYNSIGDIIDHYRKEQIVEGYYLKEPVPMQDQEQVLNDTVDGKEIYNTIRRKTKDAFYKNIVKKGYLLKKGKGKRWKNLYFILEGSDAQLIYFESEKRATKPKGLIDLSVCSVYVVHDSLFGRPNCFQIVVQHFSEEHYIFYFAGETPEQAEDWMKGLQAFCNLRKSSPGTSNKRLRQVSSLVLHIEEAHKLPVKHFTNPYCNIYLNSVQVAKTHAREGQNPVWSEEFVFDDLPPDINRFEITLSNKTKKSKDPDILFMRCQLSRLQKGHATDEWFLLSSHIPLKGIEPGSLRVRARYSMEKIMPEEEYSEFKELILQKELHVVYALSHVCGQDRTLLASILLRIFLHEKLESLLLCTLNDREISMEDEATTLFRATTLASTLMEQYMKATATQFVHHALKDSILKIMESKQSCELSPSKLEKNEDVNTNLTHLLNILSELVEKIFMASEILPPTLRYIYGCLQKSVQHKWPTNTTMRTRVVSGFVFLRLICPAILNPRMFNIISDSPSPIAARTLILVAKSVQNLANLVEFGAKEPYMEGVNPFIKSNKHRMIMFLDELGNVPELPDTTEHSRTDLSRDLAALHEICVAHSDELRTLSNERGAQQHVLKKLLAITELLQQKQNQYTKTNDVR
